Laboratory results published in article PMC6021371.
These are yes or no findings as the source states them, for the method shown. In cells and extracts the contact can be indirect. Some results given as binding are weak or reduced against the parent protein; the word gives no strength.

Amino acid sequences for entries named in this document (tags omitted). A change or cut given only in a name is not applied to a line headed by its entry.
UniProt Q13263: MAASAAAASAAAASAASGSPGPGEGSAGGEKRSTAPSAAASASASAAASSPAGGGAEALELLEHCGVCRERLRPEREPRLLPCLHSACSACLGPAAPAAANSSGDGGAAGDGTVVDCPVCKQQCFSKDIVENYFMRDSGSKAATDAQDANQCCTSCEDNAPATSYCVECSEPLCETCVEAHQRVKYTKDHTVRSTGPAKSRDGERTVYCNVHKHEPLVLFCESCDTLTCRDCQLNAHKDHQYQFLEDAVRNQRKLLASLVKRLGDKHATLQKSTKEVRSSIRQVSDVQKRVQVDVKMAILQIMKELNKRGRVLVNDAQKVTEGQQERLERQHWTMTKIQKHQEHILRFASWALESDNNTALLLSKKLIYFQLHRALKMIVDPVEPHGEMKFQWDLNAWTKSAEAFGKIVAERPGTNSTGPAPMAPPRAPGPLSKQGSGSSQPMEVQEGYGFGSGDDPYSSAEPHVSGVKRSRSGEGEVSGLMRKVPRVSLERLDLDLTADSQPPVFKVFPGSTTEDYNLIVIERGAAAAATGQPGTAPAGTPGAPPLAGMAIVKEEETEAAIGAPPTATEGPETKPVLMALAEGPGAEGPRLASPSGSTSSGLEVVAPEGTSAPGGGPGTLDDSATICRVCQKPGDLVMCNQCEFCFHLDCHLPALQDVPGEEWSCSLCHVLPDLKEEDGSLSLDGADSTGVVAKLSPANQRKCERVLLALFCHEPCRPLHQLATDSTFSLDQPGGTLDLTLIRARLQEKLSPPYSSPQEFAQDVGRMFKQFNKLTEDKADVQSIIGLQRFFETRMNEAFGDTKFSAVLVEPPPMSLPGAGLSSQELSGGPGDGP
UniProt Q9BX82: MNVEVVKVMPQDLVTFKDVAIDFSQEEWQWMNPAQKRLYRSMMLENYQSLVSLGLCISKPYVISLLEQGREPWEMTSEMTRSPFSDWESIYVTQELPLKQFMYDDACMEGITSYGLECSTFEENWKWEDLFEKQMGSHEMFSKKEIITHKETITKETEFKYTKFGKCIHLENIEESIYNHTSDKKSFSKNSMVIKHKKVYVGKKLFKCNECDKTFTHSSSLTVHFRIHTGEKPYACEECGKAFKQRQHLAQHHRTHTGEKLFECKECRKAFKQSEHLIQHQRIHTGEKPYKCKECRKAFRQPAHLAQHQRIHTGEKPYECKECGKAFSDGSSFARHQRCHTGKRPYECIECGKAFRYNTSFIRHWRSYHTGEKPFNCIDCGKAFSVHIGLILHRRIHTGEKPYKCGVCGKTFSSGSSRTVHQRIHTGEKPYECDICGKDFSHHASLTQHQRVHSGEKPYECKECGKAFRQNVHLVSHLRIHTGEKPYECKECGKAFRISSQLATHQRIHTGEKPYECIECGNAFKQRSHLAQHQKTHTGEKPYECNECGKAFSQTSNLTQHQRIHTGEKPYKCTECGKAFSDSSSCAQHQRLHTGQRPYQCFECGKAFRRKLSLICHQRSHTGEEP

Columns and labels:
[1] = target: KRAB-Interacting Protein 1 (KAP1), Myc-tagged (UniProt Q13263); assay: co-IP; GES1 cells co-transfected for 48 h; lysis in RIPA buffer with sonication; immunoprecipitation with anti-Myc antibody and protein-G beads overnight at 4 °C; Western blot with anti-Flag or anti-GFP
[2] = target: KRAB-Interacting Protein 1 (KAP1), Myc-tagged (UniProt Q13263); assay: co-IP; HEK293T cells expressing the KRAB-domain of ZNF471 and KAP1; no further conditions told for this cell line

## Zinc-finger protein 471 (ZNF471), full length, Flag-tagged (from UniProt Q9BX82 1-626)
[1]
  binding: binds

## KRAB-domain of ZNF471 fused with GFP-tag (from UniProt Q9BX82 14-85) (domain or fragment)
[2]
  binding: binds
[1]
  binding: binds
